In publication PMC10163288:
The list shows a part of the results.

B1: il2ra_site2_3nfp_sap_17_mot_HHH_b2_06150_000000217_0001_39_53_H_._HHH_b2_00252_0001_0001000040_0000001_0_0001 (protein)
chain: SSSSSDKREEYLRAVLAVAREAAKEDPELARKLAELLERAIKDAGDEELRELVEELLEELSSSSS
B2: il2ra_site2_3nfp_normal_mot_HHH_b1_00050_000000292_0001_22_38_H_._HHH_b1_03210_af2_0001_0000100002_0000001_0 (protein)
chain: SSSSNLSTRIFELLEILKELGDDRAVLRVYAIALEAYRKRDPELYEEAEQLAEKLIEELRSSSSS
B3: il2ra_site1_1z92_normal_mot_ems_4hC_799_0001_000000043_0001_18_33_H_._c6bbdfcc86d42384e443e22edc3665cc_0001_af2_0001_0000100003_0000001_0 (protein)
chain: SRQELQHLIEELREEGVPPEEIVKILLELVEKDAGDPRLALQFLKRLLKKLGDPELLRVLEELIK
B4: il2ra_site1_1z92_normal_mot_HHH_b1_02117_000000029_0001_1_15_H_._HHH_b2_01516_0001_0000400017_0000001_0 (protein)
chain: SSSSDLERAVRILLEIVEELLKNGNPESARNNLRFAERFAKENNDEELEEEIEEVRERVENSSSS
B5: il2ra_site2_3nfp_normal_mot_HHH_b1_03376_000000004_0001_41_55_H_._HHH_b1_05644_af2_0001_0000900045_0000001_0_af2pred_0001_1_af2pred_swapped (protein)
chain: SSSSSEEEREIKELLEEAQELLKNGNPEEAEKLVLEAALLAFEINNPELAFEAAELLLKIRSSSS
B6: il2ra_site2_3nfp_normal_mot_HHH_b1_05627_af2_000000038_0001_43_56_H_._HHH_b1_07789_af2_0001_0000700008_0000001_0 (protein)
chain: SSSSDKAEEYVRAAILAARAALEAGDPEAAKRHLEAAYLLAEARRNPLLEEVEELLEELRSSSSS
B7: il2ra_site2_2erj_sap_27_mot_35d2dc24e2c4431f89e6f806b163ecf8_0001_af2_000000103_0001_35_49_H_._dcd9809507f71d420582ead1f1e1bbb3_0001_0001_0000400018_0000001_1_0 … (protein)
chain: SSSSDEEERELEELIKRAEELLEQGNPEEALFVLFRAARIAFELGDEETAIKIARLAIEIRSSSS
B8: il2ra_site2_2erj_normal_mot_HHH_b1_01129_af2_000000281_0001_18_33_H_._HHH_b2_04351_0001_0000300029_0000001_0 (protein)
chain: SSSSSSDVEEEVERLLEEAKEISDLREVYRLLNEALRLAAERRDEELQELVLKVVEEHSSSSSSS
B9: il2ra_site1_2b5i_normal_mot_f5ff40796168375b462bec8614a1db4a_0001_1_000000138_0001_53_65_H_._HHH_b2_02299_0001_0000100002_0000001_0_af2pred_dldesign_0_af2pred (protein)
chain: SSSSSDPEELRELTLELLEEAKKIEDPKERLRLLRLARRVARKAGDAELIAEVEALLEELSSSSS
B10: il2ra_site2_3nfp_normal_mot_HHH_b2_04451_000000238_0001_21_37_H_._HHH_b2_04195_af2_0001_0000200011_0000001_0 (protein)
chain: SSSSSEEEEVRELLEQARELLERGDPYEALELLAEASEIAAKLNNEELARLILELFEKVQKSSSS

target: il2ra, P01589; assay: yeast display titration

Row | Binder | apparent Kd
1 | B1 | inactive: no binding seen
2 | B2 | inactive: no binding seen
3 | B3 | inactive: no binding seen
4 | B4 | inactive: no binding seen
5 | B5 | inactive: no binding seen
6 | B6 | inactive: no binding seen
7 | B7 | inactive: no binding seen
8 | B8 | inactive: no binding seen
9 | B9 | inactive: no binding seen
10 | B10 | inactive: no binding seen
